The results are deposited in PubChem (AID1159506; NCATS, 2015).

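Genome-wide siRNA knockdown in TC32 Ewing sarcoma cells, comparing luciferase light from an NR0B1-promoter reporter with a CMV-promoter reporter 48 hours after transfection. Each siRNA was applied at 20 nM. A z-score of the log NR0B1-over-CMV signal, less the median of siRNAs with the same seed; more negative means a stronger specific loss of the NR0B1 reporter.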

The strongest results of the screen are mostly left out here. Sequences are the guide (antisense) strand, without overhang.

Sequence,gene,seed-corrected z-score
AUAUUCCUCAGAGUAGCUG,STRA6,-0.7759
UUUACUGUACAGAAUAAGC,QRFPR,1.157
AUGGGCAUCCGAGCAGUUG,SLC6A3,1.02
UUUCGACUGAACUAAACAC,TRANK1,0.2285
AAUUUUCCUUACAUUUUCC,LINC01114,1.778
AAUGUCUCAACGCAUACUC,LGMN,-0.1579
UUUUAGUAGUUCAUUAGUC,HMMR,-0.5693
UGCUGUAUGAGAAUCCCUG,MYOZ1,-0.05058
UGAGCAAGCAUUUCGUAGC,GALT,-0.2529
AACUGAAGAAAUUUCGCUG,PPP4R2,1.266
AUUGUUAUUCAUACCGUUG,PIK3R1,1.218
UACGCAAUCCGAGAGAAGC,TRPC3,-0.4477
AGCCUGUUCAGAAUCUCCU,GPR26,-0.6019
UUAGCUAUGUUGGUUGUUG,KCMF1,0.8627
UAGUCUGAAACAAGUCUGG,DBF4P1,0.1792
UUCUCAUCAGGUCCGGUCG,C12orf73,0.2306
UCAAAGUAGACACGGGUGC,TRABD2B,0.1742
AUCGCUUCUACCAGCAUGG,OR2W5,0.6132
AACUGUACCAGCCGAACUC,CASK,-0.6473
UAGUCUCUGGUUUUGGUGU,KCNRG,-0.4811
UAUGUAACAAGCUUUCACU,FAM162B,0.8987
UUCCUGACGUAUUCCACCU,PDGFA,-0.1119
UCUUGGUCUACAGUUAUAG,TMA16,-1.149
UAUCGUUUCUUCCAAGCUG,CLEC10A,-0.5814
UCUGGGUUCACCUUGUAGG,SHMT1,-0.2737
UUGGGUUAAUGAUACCUUG,TFIP11,0.8957
UGUUUGGUAAGUGAACUUC,CNKSR3,-0.7412
UGCAUGCUUAAUAACAUCU,OR1J4,0.5239
AUAUGAUCUAAGGGUAAUC,NAA15,1.729
UUUACAUUCAUAUCGUUUC,ZNF491,-0.2899
UUGACUUGAGGUAGCAUGC,IL15RA,-0.05505
UGAGCUCCAAGGUUAGAAG,PHGDH,0.5792
UAUUAUGGUAUAGAACAGG,OR8B12,0.2007
UUAACUCCAAGCUUGACUG,SYTL3,0.9583
UUUGUUGAGCAAACCAAGU,MXI1,0.1478
UGAUCUUUGGGUAUCAACC,POLB,0.4172
UGUUGAUUAAAAUAGCAAG,KCNMB4,-0.996
UGAUGUUGACGGGUUUCUC,CRLF1,0.5908
UACCCUAGAGGAGAAACAC,TMEM141,-1.097
AUGGUUUUAGGAGCCUUGG,SAGE2P,-0.8628
UCAUCUACCUCCUUAACUC,SNX5,-0.171
UGCAGGUUGUUCUAUUUAC,MT1E,0.5933
UUGAUCACUAUAACUGUGC,ADGRE1,-0.6998
UUUUUACUGACAGCUCUUC,RRP1B,1.455
UGUUGGGCCGUGUAGAAGC,FDXR,0.2977
UCUGAAUCCACUGAGGCUG,TRIM51,0.8053
AGGUGUAUCACCUACAAGC,ROCK1,-0.7578
UCUGGUAGUAGAUGUAGAG,MON1A,0.1574
UGGUUAUUCAGCAACUUUC,PPP2R3A,-1.101
AAUGCUGUAAAACUUUACC,MTCH2,0.2767
UUCACUAUGAUGACUGUAG,TMEM192,-0.1132
UAUCUGAUCGUGAUCGAGC,PLEKHM3,-0.7744
UGAUUCUCCAUUGAAAGGG,ODF4,0.4024
UAAAGUCUUCCUCCUGUUG,HMMR,5.538
UAGGUAUAAAUAUUGGGCC,FAR2,-0.2941
UUUCUUCUGUUCAAGUUUC,PRKRIP1,0.7966
UCUUUAGGGACACUUGGCA,CITED1,0.334
UACUGACCCUCCUUGAUGG,MACC1,-0.04634
AAAGGCUUGAUCAUUUUGC,TXN,0.5763
UAAGUGGUCGGAGGGAAGA,CA13,-0.2586
AAAUAGUUUUCAAGUAUGG,DOT1L,1.003
UUUCGAAACAGCGUUGCAG,LELP1,-0.458
UAUCGAAGAACUUCUGGUA,ST6GAL1,-0.4738
UCAGACACCACUUCCUCCC,ADPRHL2,0.9465
UCAGCAUCUAGAGUACCUG,GPR179,-0.829
UUAUCGACUAUACCAAUAG,GIN1,-0.4739
UCUAGAUUAACAGUGCUAG,SLC35G3,0.924
UACGCGAUCACCCAGUUGU,PCNX3,-0.9654
UCAAAGACGAAGAAGAGGC,ZDHHC18,-0.8868
UAACGAAUUAUCUGCACAG,MUC13,-0.5014
UUGAUUACUGCUUCGCUCC,RP1,1.843
UAUUGAUGUAUUUCGUUGG,NRG3,1.523
AACCUUAAAGCAGUUGAUG,MOSPD2,0.5551
UAUCAGCUCUCCGAGGUUC,VPS53,-0.4495
UUUGUAGCUAACUCGACAC,KIFAP3,-0.694
UAGUAUCUAAGAUAAAUCC,EVI2B,0.1621
UCCAAUAACAGUUCGACUG,ZUFSP,0.4486
UAACUUUAUCCAGUGGUUC,TMEM45B,0.3754

Some entries from above, unchanged:

{"sequence": "UAAAGUCUUCCUCCUGUUG", "gene": "HMMR", "seed-corrected z-score": "5.538"}
{"sequence": "UGAGCAAGCAUUUCGUAGC", "gene": "GALT", "seed-corrected z-score": "-0.2529"}
{"sequence": "UAGUAUCUAAGAUAAAUCC", "gene": "EVI2B", "seed-corrected z-score": "0.1621"}
{"sequence": "UCAGCAUCUAGAGUACCUG", "gene": "GPR179", "seed-corrected z-score": "-0.829"}
{"sequence": "UUUCUUCUGUUCAAGUUUC", "gene": "PRKRIP1", "seed-corrected z-score": "0.7966"}
{"sequence": "AUCGCUUCUACCAGCAUGG", "gene": "OR2W5", "seed-corrected z-score": "0.6132"}
{"sequence": "UAUCAGCUCUCCGAGGUUC", "gene": "VPS53", "seed-corrected z-score": "-0.4495"}
{"sequence": "UACUGACCCUCCUUGAUGG", "gene": "MACC1", "seed-corrected z-score": "-0.04634"}